Measurements reported in PubChem BioAssay AID1259254 (NCATS, 2017)
The whole screen tested about 59,000 reagents; shown is a part drawn at random. About 1,550 of all reagents (2.6%) were called active. 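G2 share is only a proxy for re-replication; each gene was hit by three separate siRNAs, and active genes were retested.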 Entries without a mark were called inactive. The numbers tell different reagents against one gene apart. Further read-outs or replicates are left out here. Not given: the amount of reagent.

Test: 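Gene knock-downs that lead to re-replication, shown by excess G2 DNA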 (primary screen)
Cells: human HCT116 colorectal cancer cells
Knock-down reagent: single siRNA against human genes
Duration: 3 days
Measurement: 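Nuclei stained with Hoechst and imaged; cell-cycle phase assigned by DNA content; G2 share scaled per plate, non-targeting siRNA 0%, GMNN siRNA 100%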
Reading the numbers: G2 robust z-score: higher = more G2 cells, more excess DNA replication
Rule for the call: 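Active siRNAs have a G2 robust z of 5 or more median absolute deviations over the median, which in these data means about 38% or higher of GMNN control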

gene,siRNA no.,G2 robust z-score
SREBF1 (GeneID 6720),1,2.13
SREBF1 (GeneID 6720),2,-1.08
SREBF1 (GeneID 6720),3,-1.19
IQCE (GeneID 23288),1,0.234
IQCE (GeneID 23288),2,-1.08
IQCE (GeneID 23288),3,-0.466
BRD8 (GeneID 10902),1,-0.318
BRD8 (GeneID 10902),2,3.03
BRD8 (GeneID 10902),3,-0.959
SMIM19 (GeneID 114926),1,-0.57
SMIM19 (GeneID 114926),2,0.0473
SMIM19 (GeneID 114926),3,-0.635
PAK6-AS1 (GeneID 644809),1,3.19
PAK6-AS1 (GeneID 644809),2,0.795
PAK6-AS1 (GeneID 644809),3,0.666
LYRM7 (GeneID 90624),1,0.0427
LYRM7 (GeneID 90624),2,-0.213
LYRM7 (GeneID 90624),3,-0.654
MIOS (GeneID 54468),1,-0.774
MIOS (GeneID 54468),2,-1.21
MIOS (GeneID 54468),3,2.92
TSC22D3 (GeneID 1831),1,-0.469
TSC22D3 (GeneID 1831),2,0.834
TSC22D3 (GeneID 1831),3,2.8
UBL4A (GeneID 8266),1,1.89
UBL4A (GeneID 8266),2,3.33
UBL4A (GeneID 8266),3,-0.465
CDC23 (GeneID 8697),1,1.76
CDC23 (GeneID 8697),2,0.662
CDC23 (GeneID 8697),3,1
CEP126 (GeneID 57562),1,-0.698
CEP126 (GeneID 57562),2,0.212
CEP126 (GeneID 57562),3,-0.46
SLC13A4 (GeneID 26266),1,0.408
SLC13A4 (GeneID 26266),2,0.056
SLC13A4 (GeneID 26266),3,2.82
PIP5K1A (GeneID 8394),1,-0.342
PIP5K1A (GeneID 8394),2,2.87
PIP5K1A (GeneID 8394),3,-0.622
PDE6C (GeneID 5146),1,2.7
PDE6C (GeneID 5146),2,-0.552
PDE6C (GeneID 5146),3,0.462
APC (GeneID 324),1,2.98
APC (GeneID 324),2,-0.5
APC (GeneID 324),3,-0.281

Part of the list above in another layout:
| gene | siRNA no. | G2 robust z-score |
| --- | --- | --- |
| PAK6-AS1 (GeneID 644809) | 2 | 0.795 |
| PAK6-AS1 (GeneID 644809) | 3 | 0.666 |
| LYRM7 (GeneID 90624) | 1 | 0.0427 |
| LYRM7 (GeneID 90624) | 2 | -0.213 |
| LYRM7 (GeneID 90624) | 3 | -0.654 |
| MIOS (GeneID 54468) | 1 | -0.774 |
| MIOS (GeneID 54468) | 2 | -1.21 |
| MIOS (GeneID 54468) | 3 | 2.92 |
| TSC22D3 (GeneID 1831) | 1 | -0.469 |
| TSC22D3 (GeneID 1831) | 2 | 0.834 |
| TSC22D3 (GeneID 1831) | 3 | 2.8 |

Additional records follow.
gene,siRNA no.,G2 robust z-score
GSTA12P (GeneID 647169),1,-0.207
GSTA12P (GeneID 647169),2,-0.099
GSTA12P (GeneID 647169),3,-0.802
TARS2 (GeneID 80222),1,-1.03
TARS2 (GeneID 80222),2,0.918
TARS2 (GeneID 80222),3,0.711
DAPK2 (GeneID 23604),1,-0.539
DAPK2 (GeneID 23604),2,1.56
DAPK2 (GeneID 23604),3,1.37
ATP6V1G3 (GeneID 127124),1,0.703
ATP6V1G3 (GeneID 127124),2,0.201
ATP6V1G3 (GeneID 127124),3,0.419
KRTAP5-4 (GeneID 387267),1,1.06
KRTAP5-4 (GeneID 387267),2,0.136
KRTAP5-4 (GeneID 387267),3,-0.915
TMEM38A (GeneID 79041),1,-1.54
TMEM38A (GeneID 79041),2,0.519
TMEM38A (GeneID 79041),3,0.631
MVP (GeneID 9961),1,4.17
MVP (GeneID 9961),2,-0.126
MVP (GeneID 9961),3,-1.15
OR2A25 (GeneID 392138),1,-0.591
OR2A25 (GeneID 392138),2,-0.414
OR2A25 (GeneID 392138),3,-0.646
MMP24 (GeneID 10893),1,5.32 (active)
MMP24 (GeneID 10893),2,3.02
MMP24 (GeneID 10893),3,0.0116
UFL1 (GeneID 23376),1,-0.435
UFL1 (GeneID 23376),2,-0.347
UFL1 (GeneID 23376),3,4.92
OTP (GeneID 23440),1,2.71
OTP (GeneID 23440),2,-0.311
OTP (GeneID 23440),3,-1.18
GTPBP6 (GeneID 8225),1,3.01
GTPBP6 (GeneID 8225),2,-0.406
GTPBP6 (GeneID 8225),3,1.02
FOXA1 (GeneID 3169),1,-0.201
FOXA1 (GeneID 3169),2,1.26
FOXA1 (GeneID 3169),3,-1.68
UBTFL3 (GeneID 129870),1,-0.627
UBTFL3 (GeneID 129870),2,-0.233
UBTFL3 (GeneID 129870),3,1.13
